Results on 38 molecules are retold here after the supplement of paper PMC12823440, “Inhibitors supercharge kinase turnover through native proteolytic circuits” (Nature, 2025).

Protein sequences, listed by entry. Tags and fused reporters are not part of them. Lines headed by an entry give the natural chain unless they say otherwise; changes in a name come on top.
UniProt P49840: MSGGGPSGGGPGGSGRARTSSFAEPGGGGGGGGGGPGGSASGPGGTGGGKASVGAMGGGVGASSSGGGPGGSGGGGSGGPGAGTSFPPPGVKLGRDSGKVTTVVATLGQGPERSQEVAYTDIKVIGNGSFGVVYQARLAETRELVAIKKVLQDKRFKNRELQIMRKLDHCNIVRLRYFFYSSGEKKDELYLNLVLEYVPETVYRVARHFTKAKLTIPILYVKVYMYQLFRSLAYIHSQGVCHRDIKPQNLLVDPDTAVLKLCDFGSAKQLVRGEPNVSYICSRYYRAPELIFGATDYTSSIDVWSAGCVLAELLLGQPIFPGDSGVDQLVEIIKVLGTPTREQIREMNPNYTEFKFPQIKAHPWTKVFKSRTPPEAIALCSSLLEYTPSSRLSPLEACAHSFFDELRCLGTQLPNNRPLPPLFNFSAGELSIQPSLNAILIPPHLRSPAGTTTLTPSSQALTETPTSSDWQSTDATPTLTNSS

Structures are written as SMILES. Where a name gives a salt, the structure may show the parent alone. The list shows a part of the results. Hit calls seldom repeat between salt and free forms of one compound.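 Kinases, fused to nanoluciferase, were expressed in K562 cells; luminescence was measured every 4 h from 2 to 18 h as percent of control (DMSO = 100%, positive control = 0%). A time point is decreased if signal falls significantly (2 sigma). Hits were called by the authors by a rule that is not shown; the count of time points alone does not decide it.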

The target of the assay is GSK3A (UniProt P49840). The assay can be described thus: number of time points (of 5) at which kinase-Nluc abundance scored as decreased, DMSO-normalised (count); higher = more persistent destabilization. The following applies: K562; 2-18 h.
For the molecule `CC(C)c1ccc(CC(=O)N2CCN(c3ccc(C#N)nn3)CC2)cc1` (10 µM), the “number of time points” value came to 0.

Take `C=CC(=O)N1CCC[C@@H](n2nc(C(=O)Nc3ccc(CC(=O)N(C)C)c(C)c3C)c3c(N)ncnc32)C1` (10 µM): the “number of time points” value is 0.

Take `O=C(O)CCc1ccc(NCc2cccc(Oc3ccccc3)c2)cc1` (10 µM): the “number of time points” value came to 0.

Regarding `CCc1c(C)sc(NC(=S)NC(=O)c2ccc(Cl)cc2)c1C(N)=O` (10 µM), the “number of time points” value was found to be 0.

Consider `C=CC(=O)Nc1cccc(-n2c(=O)cc(C)c3cnc(Nc4ccc(OCCN(C)C)cc4OC)nc32)c1` (10 µM), for which the “number of time points” value was 0.

Consider `C=C(F)C(=O)N1CCN(c2nc(OC[C@@H]3CCCN3C)nc3c2CCN(c2cccc4cccc(Cl)c24)C3)C[C@@H]1CC#N` (2.5 µM), for which the “number of time points” value was 0.

With `COc1ncc(Nc2ncc([C@@H](C)N3CCN(S(C)(=O)=O)CC3)cc2-c2nc(C)nc(N)n2)cc1F` (10 µM), the “number of time points” value came to 0.

`COc1ccc2c(c1OC)OC1c3ccc(O)cc3OCC21` (stereo not drawn) [Methylnissolin] (10 µM): the “number of time points” value was 0.

Consider `O=C(CO)N1CCC(c2n[nH]c(-c3ccc(Cl)cc3)c2-c2ccncn2)CC1` (10 µM), for which the “number of time points” value is 0.

With `O=C1NC(=O)/C(=C/c2ccc(-c3ccc(F)cc3O)o2)S1` (10 µM), the “number of time points” value stood at 0.

`Cc1cc(C(C)Nc2ccccc2)c2nc(N3CCOCC3)cc(=O)n2c1` (stereo not drawn) (10 µM): the “number of time points” value is 0.

As for `Cc1cccc(-c2[nH]ncc2-c2ccc3ncccc3n2)n1` (10 µM), the “number of time points” value worked out at 0.

As to `Cc1cc2ncc(-c3ccccc3)nc2cc1C` (10 µM), the “number of time points” value turned out to be 0.

As for `COc1cc(C(=O)N2CCC(N3CCN(C)CC3)CC2)ccc1Nc1ncc2c(n1)N(C)c1ccccc1C(=O)N2C` (10 µM), the “number of time points” value turned out to be 0.

Regarding `COc1cnccc1Nc1nc(-c2nn(Cc3c(F)cc(OCCO)cc3F)c3ccccc23)ncc1OC` (10 µM), the “number of time points” value was determined as 0.

Consider `C[C@@H]1COCCN1c1cc(C2([S@](C)(=N)=O)CC2)nc(-c2cc[nH]c3nccc2-3)n1` [Ceralasertib] (2.5 µM), for which the “number of time points” value was found to be 0.

As for `CC(C)C[C@H](NC(=O)[C@H](CCCCN)NC(=O)[C@H](CO)NC(=O)[C@@H](N)CC(C)C)C(N)=O` [LSKL, Inhibitor of Thrombospondin (TSP-1) (TFA)] (10 µM), the “number of time points” value worked out at 0.

As for `Cn1cc(-c2cc3c(N4CCN(c5ncc([C@@](C)(N)c6ccc(F)cc6)cn5)CC4)ncnn3c2)cn1` [Avapritinib] (2.5 µM), the “number of time points” value is 0.

For the molecule `CC(C)(C)C(=O)N1N=CC[C@H]1c1ccccc1` (10 µM), the “number of time points” value came out at 0.

As to `N#Cc1ccc(-c2c(-c3ncn[nH]3)sc(N3CCOCC3)c2C#N)c(F)c1` (10 µM), the “number of time points” value worked out at 0.

In the case of `O=[N+]([O-])c1ccc(Sc2cccc[n+]2[O-])c2nonc12` (2.5 µM), the “number of time points” value worked out at 0.

For the molecule `Nc1nc2cc(-c3ccc4ncc(C(=O)N5CCOCC5)n4c3)ccc2o1` [Serabelisib] (10 µM), the “number of time points” value was 0.

Regarding `NCCCCCCNS(=O)(=O)c1cccc2c(Cl)cccc12` [W-7 (hydrochloride)] (10 µM), the “number of time points” value was found to be 0.

As for `COc1ccc(CCNc2ncc3c(=O)n(-c4cccc(F)c4)c(=O)[nH]c3n2)cc1OC` (2 µM), the “number of time points” value came out at 0.

As to `CCc1ccc(C(=O)COc2ccc(CC3SC(=O)NC3=O)cc2)nc1` (stereo not drawn) (10 µM), the “number of time points” value was determined as 0.

Regarding `Nc1cc(C(F)F)c(-c2nc(N3C4CCC3COC4)nc(N3C4CCC3COC4)n2)cn1` (2.5 µM), the “number of time points” value was 0.

As for `CC(C)(C)c1cc(C(c2cc3c(cc2O)OCO3)N2CCOCC2)cc(C(C)(C)C)c1O` (stereo not drawn) (2.5 µM), the “number of time points” value is 0.

As to `N#C/C(=C(/N)Sc1ccc(N)cc1)c1ccccc1C(F)(F)F` (10 µM), the “number of time points” value was determined as 0.

`CC(C)c1cnn2c(NCc3ccccc3-n3cccn3)nc(OC3CCCNC3)nc12` (stereo not drawn) (2.5 µM): the “number of time points” value was found to be 0.

In the case of `COc1cc(C(C)=O)cc(OC)c1O` [Acetosyringone] (10 µM), the “number of time points” value was found to be 0.

With `O=S(=O)(c1cccc2cnccc12)N1CCNCC1` (10 µM), the “number of time points” value was found to be 0.

Consider `CN1C(=O)NC(Cc2c[nH]c3c(Cl)cccc23)C1=O` (racemic) [Necrostatin 2 (racemate)] (10 µM), for which the “number of time points” value is 0.

Take `COc1ccc2c(c1)c(C1=C(c3c[nH]c4ccccc34)C(=O)NC1=O)cn2CCCN(C)C` (10 µM): the “number of time points” value is 0.

For `COc1cc(-c2cc(-c3cc(OC)c(OC)c(OC)c3)cc(C(F)P(=O)(OCOC(=O)C(C)(C)C)OCOC(=O)C(C)(C)C)c2)cc(OC)c1OC` (stereo not drawn) [Stafia-1-dipivaloyloxymethyl ester] (2.5 µM), the “number of time points” value stood at 0.

Regarding `Fc1c(Br)cccc1Nc1ncnc2cc3c(cc12)OCCO3` (2.5 µM), the “number of time points” value is 0.

Take `CN(C)c1ncnc2nc[nH]c12` [6-(Dimethylamino)purine] (10 µM): the “number of time points” value stood at 0.

With `CN(C)Cc1cccc(N=C(c2ccccc2)c2c(O)[nH]c3cc(C(=O)N(C)C)ccc23)c1` (10 µM), the “number of time points” value came to 0.

As to `Cn1cc(-c2ccc3nnc(C(F)(F)c4ccc5ncccc5c4)n3n2)cn1` (10 µM), the “number of time points” value amounted to 0.
